# Several values for one entry are separate records, joined by “and”; a condition that tells them apart may be missing. Equal entries are not always repeated. The inconclusive results got no clear call from the source; some entries with a clear call stand among them for comparison. For some assays here: A potency beside an inconclusive call is a rough fit, not a confirmed value. Where a structure was tested more than once in an assay, its records may differ in their call. Activity calls are given as the source filed them. Unless noted, calls follow the shape of the full dose curve.
# The chains behind the UniProt entries cited, without tags or fusion partners. Where a name states a change or a piece, a line headed by the entry shows the natural chain unless it says otherwise.
# UniProt P30968: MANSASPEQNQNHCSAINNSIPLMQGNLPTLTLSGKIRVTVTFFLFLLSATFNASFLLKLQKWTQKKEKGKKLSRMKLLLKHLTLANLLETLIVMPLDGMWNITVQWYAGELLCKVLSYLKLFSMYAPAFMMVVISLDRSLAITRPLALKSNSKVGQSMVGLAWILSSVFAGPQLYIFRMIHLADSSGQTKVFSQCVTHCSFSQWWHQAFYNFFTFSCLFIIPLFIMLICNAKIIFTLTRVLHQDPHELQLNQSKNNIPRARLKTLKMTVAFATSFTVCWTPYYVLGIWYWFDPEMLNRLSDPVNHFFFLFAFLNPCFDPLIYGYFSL
# UniProt Q969F8, whole entry, looked up: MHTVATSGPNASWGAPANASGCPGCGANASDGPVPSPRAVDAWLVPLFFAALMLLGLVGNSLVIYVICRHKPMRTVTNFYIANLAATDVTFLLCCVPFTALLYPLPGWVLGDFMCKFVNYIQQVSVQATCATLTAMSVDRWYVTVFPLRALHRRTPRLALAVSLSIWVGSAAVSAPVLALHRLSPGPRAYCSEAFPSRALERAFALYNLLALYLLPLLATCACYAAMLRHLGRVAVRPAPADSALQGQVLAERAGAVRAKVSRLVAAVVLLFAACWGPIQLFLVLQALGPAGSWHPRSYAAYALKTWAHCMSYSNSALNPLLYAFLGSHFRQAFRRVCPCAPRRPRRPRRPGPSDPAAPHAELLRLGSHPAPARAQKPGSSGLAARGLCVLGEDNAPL
# UniProt P28223, whole entry, looked up: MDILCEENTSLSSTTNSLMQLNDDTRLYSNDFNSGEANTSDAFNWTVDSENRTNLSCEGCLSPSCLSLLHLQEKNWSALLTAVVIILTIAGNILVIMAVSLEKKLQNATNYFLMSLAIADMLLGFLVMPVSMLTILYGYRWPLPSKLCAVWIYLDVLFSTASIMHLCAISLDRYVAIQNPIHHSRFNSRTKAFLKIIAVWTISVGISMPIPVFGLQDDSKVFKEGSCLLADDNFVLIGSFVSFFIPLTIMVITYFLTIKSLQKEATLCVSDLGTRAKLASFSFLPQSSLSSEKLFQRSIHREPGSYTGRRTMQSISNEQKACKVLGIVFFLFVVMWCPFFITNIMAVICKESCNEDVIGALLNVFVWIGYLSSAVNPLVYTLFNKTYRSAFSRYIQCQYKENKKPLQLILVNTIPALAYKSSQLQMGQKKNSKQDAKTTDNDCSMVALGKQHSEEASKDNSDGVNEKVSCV
# UniProt P11229: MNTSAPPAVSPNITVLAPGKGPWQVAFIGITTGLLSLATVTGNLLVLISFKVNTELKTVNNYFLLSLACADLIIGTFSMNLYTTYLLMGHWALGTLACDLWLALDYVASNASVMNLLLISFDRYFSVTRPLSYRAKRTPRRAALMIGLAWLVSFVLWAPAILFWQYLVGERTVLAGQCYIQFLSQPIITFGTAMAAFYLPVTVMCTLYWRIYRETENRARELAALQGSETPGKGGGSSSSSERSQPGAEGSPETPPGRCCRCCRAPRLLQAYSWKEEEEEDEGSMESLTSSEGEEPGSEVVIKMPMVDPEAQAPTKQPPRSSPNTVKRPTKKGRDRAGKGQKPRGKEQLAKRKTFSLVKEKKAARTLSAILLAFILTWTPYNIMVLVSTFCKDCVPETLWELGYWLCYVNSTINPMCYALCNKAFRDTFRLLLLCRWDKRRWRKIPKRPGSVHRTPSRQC
# UniProt P14416, whole entry, looked up: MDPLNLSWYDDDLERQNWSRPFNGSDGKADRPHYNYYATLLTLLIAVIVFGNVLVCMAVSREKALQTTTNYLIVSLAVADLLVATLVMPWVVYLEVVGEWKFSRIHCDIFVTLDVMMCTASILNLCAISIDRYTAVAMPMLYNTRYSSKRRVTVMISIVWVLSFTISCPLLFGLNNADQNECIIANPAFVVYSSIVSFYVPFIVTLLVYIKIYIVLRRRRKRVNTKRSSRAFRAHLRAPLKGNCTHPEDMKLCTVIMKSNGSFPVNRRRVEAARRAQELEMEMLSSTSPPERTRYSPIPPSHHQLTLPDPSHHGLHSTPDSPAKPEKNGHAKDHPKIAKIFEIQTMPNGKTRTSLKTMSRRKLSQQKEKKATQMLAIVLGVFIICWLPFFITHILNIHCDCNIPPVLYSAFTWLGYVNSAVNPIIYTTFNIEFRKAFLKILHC
# How the values were obtained:
# [1] = Nuclear factor erythroid 2-related factor 2/antioxidant responsive element (Nrf2/ARE) small molecule agonists: luciferase reporter gene qHTS assay in human keratinocytes (AID 1919969); conditions: KeratinoSens HaCaT ARE-luciferase, luminescence, 24 h; activity, positive = activation: at 92.4 µM (top of the series); also: potency is read from the fitted curve at half-maximal effect; nearly all actives have a fitted effect of over 35% in size
# [2] = target: Gonadotropin-releasing hormone receptor (Homo sapiens) (UniProt P30968); assay: Human gonadotropin-releasing hormone receptor (GnRHR) small molecule agonists, calcium flux assay in GnRHR-HEK293 cells (AID 1920063); conditions: calcium flux fluorescence, agonist mode; activity change: at 57.6 µM (top of the series), stronger effect = higher value unless noted; also: % is scaled to controls: 0 for no effect and ±100 for the full control effect; nearly all actives have a fitted effect of over 35% in size
# How it was run: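 We seeded human GnRHR-expressing HEK293 cells for 18 hours, loaded them with calcium dye for an hour at 37 C, added test compounds, and recorded fluorescence intensity kinetically for three minutes.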
# [3] = target: Beta-2 adrenergic receptor (Homo sapiens) (UniProt P07550); assay: Adrenergic beta2 receptor (ADRB2) small molecule agonists, cell-based qHTS assay (AID 1963593); conditions: CHO-ADRB2 cells, cAMP HTRF, 30 min; activation: at 92.4 µM (top of the series) unless noted; also: potency is read from the fitted curve at half-maximal effect;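 as to activation: CHO cells stably overexpressing human ADRB2; % is scaled to controls: 0 for no effect and ±100 for the full control effect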
# How it was run: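 CHO cells stably over-expressing ADRB2 were plated overnight at 37C, then dosed with compounds plus a stimulation mix containing 100uM IBMX and 25uM Ro-20-1724 for 0.5hr at room temperature. cAMP was measured by HTRF competition, 1hr.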
# [4] = target: KiSS-1 receptor (Homo sapiens) (UniProt Q969F8); assay: Human kisspeptin (KISS1R) small molecule agonists, calcium flux assay in KISS1R-HEK293 cells (AID 1920064; active = well fitted activation curve with a large enough effect in the repeat runs; inconclusive = weak or mixed curves; also: potency is read from the fitted curve at half-maximal effect)
# How it was run: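 Kinetic calcium assay, 1 s sampling over 3 min at Ex/Em 480/540, in HEK293 cells engineered with human KISS1R; compounds delivered in DMSO after 1 h dye loading.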
# [5] = p53 small molecule agonists, cell-based qHTS assay with human liver microsomes (AID 1963577); conditions: HCT-116 p53RE-bla with human liver microsomes, ratio, 16 h; activation: at 66 µM (top of the series) unless noted; also: potency is read from the fitted curve at half-maximal effect; as to activation: % is scaled to controls: 0 for no effect and ±100 for the full control effect
# How it was run: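 Cells carrying a p53-responsive bla reporter were rested 5 h (37 C, 5% CO2) before compound transfer. Human liver microsomes plus NADPH, 0.5 mg/mL final apiece, supplied metabolism during the 16 h 37 C exposure.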
# [6] = p53 small molecule agonists, cell-based qHTS assay with rat liver microsomes (AID 1963578); conditions: HCT-116 p53RE-bla, beta-lactamase ratio, 16 h; activation: at 66 µM (top of the series) unless noted; also: potency is read from the fitted curve at half-maximal effect
# How it was run: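 Fluorescence from a beta-lactamase reporter under a p53 response element was measured after cells had been incubated 16 h at 37 C with test compound and rat liver microsomes plus NADPH (0.5 mg/mL final each).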
# [7] = p53 small molecule agonists, cell-based qHTS assay: qHTS cell viability counter screen (AID 1963581); also: potency is read from the fitted curve at half-maximal effect; nearly all actives have a fitted effect of over 45% in size
# How it was run: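 Following 5 h attachment, HCT-116 p53RE-bla cells took up compound for 16 h at 37 C; the reporter was read with B/G FRET substrate (2 h RT), and viability then via CellTiter-Glo ATP luminescence.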
# [8] = p53 small molecule agonists, cell-based qHTS assay (AID 1963582; active = well fitted activation curve with a large enough effect in the signal ratio in the repeat runs, not every such curve was filed as active; inconclusive = weak or mixed curves; the % refers to the signal ratio; also: potency is read from the fitted curve at half-maximal effect); conditions: HCT-116 p53RE-bla reporter, beta-lactamase FRET ratio, 16 h; activation: at 66 µM (top of the series) unless noted
# How it was run: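 In this cell-based concentration-response screen, a p53 response element drives beta-lactamase; cells received DMSO-borne compounds after 5 h culture and were incubated a further 16 h before FRET substrate development.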
# [9] = target: 5-hydroxytryptamine receptor 2A (Homo sapiens) (UniProt P28223); assay: 5-hydroxytryptamine receptor 2A (HTR2A) small molecule antagonists, cell-based qHTS assay (AID 1963586); also: potency is read from the fitted curve at half-maximal effect; nearly all actives have a fitted effect of over 45% in size
# How it was run: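 Antagonist-mode intracellular calcium assay: DOI (4 nM) added after 5 min compound pre-incubation at room temperature to dye-loaded HTR2A-CHO cells. Fluorescence followed for 3 min, sampled every second.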
# [10] = target: Muscarinic acetylcholine receptor M1 (Homo sapiens) (UniProt P11229); assay: Cholinergic receptor muscarinic 1 (CHRM1) small molecule antagonists, cell-based qHTS assay (AID 1963588); also: potency is read from the fitted curve at half-maximal effect; nearly all actives have a fitted effect of over 40% in size
# How it was run: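 CHRM1-CHO calcium-flux assay, antagonist mode. Cells were seeded 18 h, dye-loaded 1 h at 37 C and given compound for 5 min at RT, then acetylcholine was added at 50nM. FDSS fluorescence was read 3 min; 15 concentrations, three runs.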
# [11] = cAMP Responsive Elements (CRE) small molecule agonists, cell-based qHTS assay (AID 1963590); conditions: CRE-bla HEK293T, beta-lactamase FRET ratio, 3 h; activation: at 92.4 µM (top of the series) unless noted; also: potency is read from the fitted curve at half-maximal effect
# How it was run: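 A CRE-responsive beta-lactamase reporter in HEK 293T cells was used. Treatment ran 3 h at 37 C; detection used LiveBLAzer B/G FRET substrate for 2 h at room temperature.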
# [12] = cAMP Responsive Elements (CRE) small molecule antagonists, cell-based qHTS assay (AID 1963591; active = well fitted inhibition curve with a large enough effect in the signal ratio in the repeat runs, not every such curve was filed as active; inconclusive = weak or mixed curves, or effect the other way; the % refers to the signal ratio; also: potency is read from the fitted curve at half-maximal effect); conditions: CRE-bla HEK293T, beta-lactamase FRET ratio; activity change, negative = inhibition: at 92.4 µM (top of the series) unless noted
# How it was run: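 HEK293T cells carrying a CRE-driven beta-lactamase reporter receive compound and NKH477 (0.25 uM final) for 3 h. Fluorescence from LiveBLAzer B/G FRET substrate is read after 2 h at room temperature.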
# [13] = target: Beta-2 adrenergic receptor (Homo sapiens) (UniProt P07550); assay: Adrenergic beta2 receptor (ADRB2) small molecule antagonists, cell-based qHTS assay (AID 1963592); conditions: CHO-ADRB2 cells, isoproterenol-stimulated cAMP HTRF ratio, 0.5 h; activity change, negative = inhibition: at 92.4 µM (top of the series) unless noted; also: nearly all actives have a fitted effect of over 50% in size; also: potency is read from the fitted curve at half-maximal effect; as to activity change, negative = inhibition: % is scaled to controls: 0 for no effect and ±100 for the full control effect
# How it was run: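 Cells (CHO, stable ADRB2 overexpression) incubated 18-20hr at 37C; compounds added from DMSO; agonist mix (1nM isoproterenol, 100uM IBMX, 25uM Ro-20-1724) added; 0.5hr RT; d2-cAMP and anti-cAMP-cryptate added; 1hr RT; 665/615 nm read.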
# [14] = target: D(2) dopamine receptor (Homo sapiens) (UniProt P14416); assay: Dopamine D2 receptor (DRD2) small molecule agonists, cell-based qHTS assay (AID 1963594); conditions: HEK293-DRD2 cAMP HTRF, agonist mode, 30 min; activation: at 92.4 µM (top of the series) unless noted; also: potency is read from the fitted curve at half-maximal effect; nearly all actives have a fitted effect of over 35% in size
# How it was run: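 HEK293 cells stably expressing DRD2 were cultured 24 h at 37 C, then given Ro20-1724 (0.1 mM final) and compounds for 10 min at room temperature. NKH477 (200nM) was then added for 30 min. cAMP was read by HTRF.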
# [15] = target: D(2) dopamine receptor (Homo sapiens) (UniProt P14416); assay: Dopamine D2 receptor (DRD2) small molecule antagonists, cell-based qHTS assay (AID 1963595; active = well fitted inhibition curve with a large enough effect in the signal ratio in the repeat runs, with a control signal flat; inconclusive = weak or mixed curves, or effect the other way; the % refers to the signal ratio; also: potency is read from the fitted curve at half-maximal effect; as to activity change, negative = inhibition: % is scaled to controls: 0 for no effect and ±100 for the full control effect); conditions: HEK293-DRD2 cAMP HTRF antagonist mode; activity change, negative = inhibition: at 92.4 µM (top of the series) unless noted
# How it was run: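 Antagonist mode in DRD2-HEK293 cells: after compound addition with 0.1 mM Ro20-1724, cells received quinpirole (12 nM) and NKH477 (200 nM) for 30 min at room temperature; HTRF cAMP read after 1 h detection.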
# [16] = G protein-coupled receptor (GPCR) small molecule agonists, calcium flux assay: HEK293 wild type cell line counter screen (AID 1920065); also: potency is read from the fitted curve at half-maximal effect
# How it was run: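 Calcium-sensitive dye, loaded 1 h at 37 C into cells cultured 18 h, reports compound-evoked calcium release as fluorescence (Ex/Em 480/540), measured over 3 min. Agonist mode; 15-point titrations, triplicate.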
# [17] = p53 small molecule agonists, cell-based qHTS assay with human liver microsomes: qHTS cell viability counter screen (AID 1963579); also: nearly all actives have a fitted effect of over 45% in size; also: potency is read from the fitted curve at half-maximal effect
# How it was run: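 Seed p53RE-bla cells at 4,000 per well; incubate 5 h at 37 C; add compound, human liver microsomes and NADPH; incubate 16 h at 37 C; add CellTiter-Glo; after 30 min at room temperature, read luminescence.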
# [18] = target: Muscarinic acetylcholine receptor M1 (Homo sapiens) (UniProt P11229); assay: Cholinergic receptor muscarinic 1 (CHRM1) small molecule agonists, cell-based qHTS assay (AID 1963589); also: potency is read from the fitted curve at half-maximal effect; nearly all actives have a fitted effect of over 35% in size
# How it was run: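 Measures agonist-induced intracellular calcium rise. Stable human CHRM1 CHO line, 1 h dye load at 37 C, compounds from DMSO, kinetic fluorescence read.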
# [19] = p53 small molecule agonists, cell-based qHTS assay with rat liver microsomes: qHTS cell viability counter screen (AID 1963580); also: potency is read from the fitted curve at half-maximal effect; nearly all actives have a fitted effect of over 45% in size
# How it was run: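 p53RE-bla HCT-116 cells (4,000/well) rested 5 h at 37 C, then given Tox21 compounds in DMSO with rat liver microsomes (0.5 mg/mL final) plus NADPH (0.5 mg/mL final) for 16 h at 37 C. Viability read by CellTiter-Glo luminescence after 30 min at room temperature.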
# [20] = target: 5-hydroxytryptamine receptor 2A (Homo sapiens) (UniProt P28223); assay: 5-hydroxytryptamine receptor 2A (HTR2A) small molecule agonists, cell-based qHTS assay (AID 1963587); also: potency is read from the fitted curve at half-maximal effect; nearly all actives have a fitted effect of over 30% in size
# How it was run: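 HTR2A-CHO cells, plated 18 h at 37 C/5% CO2, dye-loaded 1 h at 37 C; compounds in DMSO added by pin tool (agonist mode). Intracellular calcium flux read as kinetic fluorescence on FDSS over 2 min at 1 s intervals.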
smiles,measurement,setting,value
CC(C)=CC(C)(C)C,Potency,[1],"inconclusive: 26.7 µM [activator, single point]"
same,Potency,[2],inactive
same,activation,[3],inconclusive: 11%
CCCCC(CC)COC(=O)c1ccccc1C(=O)O (configuration not stated),Potency,[1],"inconclusive: 69.8 µM [activator, single point]"
same,Potency,[4],"inconclusive: 25 µM [activator, partial curve, poor fit]"
same,activation,[5],inconclusive: 3.03%
same,Potency,[6],inconclusive: 22.9 µM [fluorescent]
same,Potency,[7],inconclusive: 165 nM
same,Potency,[8],inconclusive: 14.7 µM
same,Potency,[9],"inconclusive: 3.82 µM [inhibitor, full curve, poor fit]"
same,Potency,[10],inconclusive: 2.7 µM [inhibitor]
same,Potency,[11],inconclusive: 44 µM [fluorescent]
same,Potency,[12],"inconclusive: 49.4 µM [fluorescent, partial curve, poor fit]"
same,"activity change, negative = inhibition",[13],inconclusive: 1.01%
same,Potency,[3],"inconclusive: 49.4 nM [rising, full curve, poor fit]"
same,Potency,[14],"inconclusive: 27.8 µM [rising, single point]"
same,"activity change, negative = inhibition",[15],inconclusive: -0.136%
CCOc1ccc2c(c1)C(C)=CC(C)(C)N2,Potency,[1],active: 68.2 µM and active: 68.6 µM
same,Potency,[16],"inconclusive: 38.7 µM [activator, single point]"
same,Potency,[17],inactive
same,activation,[8],inconclusive: 6.55%
same,Potency,[18],active: 54.7 µM
same,Potency,[11],"inconclusive: 68.2 µM [rising, partial curve, poor fit]"
same,Potency,[3],"inconclusive: 2420 nM [inhibitor, full curve, poor fit]"
same,activation,[3],inconclusive: -12.1%
same,Potency,[15],"inconclusive: 30.5 µM [cytotoxic, full curve, poor fit] and inconclusive: 54.5 µM [cytotoxic, partial curve, poor fit]"
Oc1c(Cl)cc(Cl)c(Cl)c1Cc1c(O)c(Cl)cc(Cl)c1Cl,Potency,[1],"inconclusive: 15.3 µM [activator, single point] and inconclusive: 13.3 µM [activator, single point]"
same,Potency,[4],"inconclusive: 61.5 µM [activator, partial curve, poor fit]"
same,Potency,[17],active: 36.3 µM
same,Potency,[19],"active: 18.2 µM and active: 32.4 µM and inconclusive: 17.8 µM [cytotoxic, partial curve, poor fit]"
same,Potency,[7],"active: 18.2 µM and inconclusive: 36.3 µM [cytotoxic, partial curve] and inconclusive: 2.81 µM [cytotoxic, full curve]"
same,Potency,[8],"inconclusive: 6.7 µM [fluorescent] and inconclusive: 513 nM [fluorescent, full curve] and inconclusive: 19.9 µM [activator]"
same,Potency,[12],"inconclusive: 18.7 µM and inconclusive: 11.4 µM [fluorescent, partial curve] and inconclusive: 13.3 µM"
same,Potency,[13],active: 48.6 µM
same,Potency,[3],"inconclusive: 48.4 µM [inhibitor, partial curve] and inconclusive: 29.8 µM [inhibitor]"
same,activation,[3],inconclusive: -43.3%
Nc1ccc2cc3ccc(N)cc3nc2c1,Potency,[1],active: 1.54 µM and active: 6.68 µM
same,Potency,[4],active: 49 µM and active: 23.9 µM
same,Potency,[5],inconclusive: 40.8 µM
same,Potency,[9],inconclusive: 0.0006 µM [inhibitor]
same,Potency,[11],"inconclusive: 61.1 µM [rising, partial curve] and inconclusive: 21.1 µM [rising, partial curve]"
same,Potency,[12],"inconclusive: 54.5 µM [rising, partial curve] and inconclusive: 33.5 µM [rising, partial curve]"
same,Potency,[3],"inconclusive: 54.5 µM [falling, partial curve] and inconclusive: 11.9 µM [falling, partial curve]"
same,Potency,[14],inconclusive: 57.7 µM
O=[N+]([O-])c1ccc(O)c2ncccc12,Potency,[1],inconclusive: 6.68 µM [activator]
same,activation,[5],inconclusive: 1.53% [at 30.3 µM]
same,Potency,[6],inconclusive: 19.9 µM [fluorescent]
same,Potency,[17],"inconclusive: 8.9 µM [cytotoxic, single point]"
same,Potency,[19],"inconclusive: 14.1 µM [cytotoxic, partial curve]"
same,Potency,[12],"inconclusive: 21.1 µM [inhibitor, partial curve, poor fit]"
same,Potency,[3],inactive
CC[C@H](C)COC(=O)/C=C/c1ccc(N=Cc2ccc(OC)cc2)cc1,Potency,[1],"inconclusive: 0.485 µM [activator, single point]"
same,Potency,[4],"inconclusive: 54.9 µM [activator, partial curve, poor fit]"
same,Potency,[17],"inconclusive: 51.3 µM [cytotoxic, single point]"
same,Potency,[19],"inconclusive: 45.7 µM [cytotoxic, single point]"
same,Potency,[8],"inconclusive: 2.29 µM [rising, partial curve, poor fit]"
same,Potency,[20],"inconclusive: 43.6 µM [activator, partial curve]"
same,Potency,[11],"inconclusive: 27.3 µM [fluorescent, single point]"
same,Potency,[13],"inconclusive: 34.3 µM [falling, partial curve, poor fit]"
same,Potency,[3],inactive
same,Potency,[14],inconclusive: 40.8 µM
same,Potency,[15],inconclusive: 68.5 µM [cytotoxic]

# — PubChem BioAssay (Tox21)
